# Measurements taken from PubChem BioAssay AID445 (National Center for Advancing Translational Sciences (NCATS), 2006).
# The other results are listed elsewhere or left out. The main result of the screen is listed elsewhere. These columns were measured beside it and carry no call. The list favours compounds with an active or inconclusive main result. Potencies come from curve fits of mixed quality, noted in brackets.
# Assay: IkB Signaling
# Conditions: ABC-DLBCL IkBa-CBG/CBR dual luciferase ratio (green luciferase fused to IkBa over red control in OCI-Ly3 lymphoma cells), 4 h
# How it was run: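 Luminescence ratio of IκBα-fused green versus native red beetle luciferase in OCI-Ly3 cells, 4 h post-doxycycline with compound; red signal alone, scaled from basal (0%) to zero light (-100%), flagged nonspecific or cytotoxic effects.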
# [1] = measured here: control luc red channel unless noted
compound,measurement,setting,value
COc1ccc(NC(=O)c2c(NCc3cccs3)sc3c2CCCCC3)cc1,AC50,[1],"3.98 µM [falling, full curve]"
Cc1ccc(-n2nc(C)c3c(C)cc(=O)n(CC(=O)Nc4ccc(C(C)C)cc4)c32)cc1,AC50,[1],"0.0158 µM [rising, full curve, poor fit]"
CCc1ccc(NC(=O)C(=O)NCCc2sc(-c3ccc(OC)c(OC)c3)nc2C)cc1,AC50,[1],"10 µM [rising, partial curve]"
COc1cc(OC)cc(C(=O)NCCc2csc(-c3cccc(C)c3)n2)c1,AC50,[1],"20 µM [falling, partial curve]"
CC1CCCCN1C(=O)c1ccc2c(c1)N(Cc1ccc(Cl)cc1)C(=O)c1ccccc1S2=O (stereo not given),AC50,[1],"20 µM [falling, partial curve]"
C[C@@]12CCC(=O)C=C1CC[C@@H]1[C@@H]2[C@H](O)C[C@]2(C)[C@@H]1CC[C@]2(O)C(=O)COC(=O)CCC(=O)O,AC50,[1],"126 nM [rising, full curve] [measured here: IkB-luc green channel]"
CCc1cccc(NC(=O)c2cc(-c3ccccc3)n[nH]2)c1,AC50,[1],"0.794 µM [falling, partial curve]"
O=C(Nc1cccc(Cl)c1)C1CCN(c2nc3ccccc3nc2C(F)(F)F)CC1,AC50,[1],"31.6 µM [falling, single point]"
COc1cccc(OCCCn2c(-c3ccc(Cl)cc3)nc3ccccc3c2=O)c1,AC50,[1],"10 µM [falling, single point]"
Cc1ccsc1C(=O)Nc1nnc(-c2ccco2)o1,AC50,measured here: IkB-luc green channel,"25.1 µM [rising, single point]"
same,AC50,measured here: control luc red channel,"5.01 µM [falling, full curve]"
CCCCSCCCNC(=O)CS(=O)Cc1nc(-c2cccc(C)c2)oc1C (stereo not given),AC50,[1],"31.6 µM [falling, partial curve]"
Cc1cc(C)n(-c2nc3ccccc3[nH]c2=O)n1,AC50,[1],"10 µM [falling, partial curve]"
CCCCSc1nnc2c(n1)OC(c1ccc(Br)s1)Nc1ccccc1-2 (stereo not given),AC50,[1],"31.6 µM [falling, partial curve]"
CCCCOC(=O)c1ccc(-n2nnc3c(sc4nc(C)cc(C)c43)c2=O)cc1,AC50,[1],"12.6 µM [falling, partial curve]"
COc1ccc(CNC(=O)c2c(O)nc3c(C)cccn3c2=O)cc1,AC50,[1],"39.8 µM [falling, single point]"
Cc1cc(N2CCC(C)CC2)nc2ccc(NC(=O)Cc3ccccc3Br)cc12,AC50,[1],"7.94 µM [falling, partial curve]"
COc1cc2nc(Nc3cccc(F)c3)nc(N)c2cc1OC,AC50,[1],"5.01 µM [falling, partial curve]"
CCOc1ccc(-c2nc(-c3ccccc3)c(-c3ccccc3)[nH]2)cc1OCC,AC50,[1],"7.94 µM [falling, partial curve]"
CCOC(=O)N[C@H](Cc1c[nH]c2ccccc12)C(=O)Nc1cccc(Cl)c1,AC50,[1],"12.6 µM [falling, partial curve]"
CCOc1ccccc1N1CSC2=C(C#N)C(c3c(OC)ccc4ccccc34)CC(=O)N2C1 (stereo not given),AC50,[1],"39.8 µM [rising, single point] [measured here: IkB-luc green channel]"
COc1ccc(C(=O)c2cn(CC(=O)Nc3cc(C)ccc3C)c3nc(C)ccc3c2=O)cc1,AC50,[1],"0.316 µM [rising, full curve, poor fit]"
CCOCCCN(Cc1ccco1)C(=O)c1cc2c(s1)-c1c(C)cccc1OC2,AC50,[1],"31.6 µM [falling, single point]"
CC(C)Oc1ccc(CNC(=O)C2=Cc3ccccc3OC2)cc1,AC50,[1],"31.6 µM [falling, partial curve]"
NC(=O)C1CCN(c2csc3ccc(F)cc3c2=O)CC1,AC50,[1],"6.31 µM [falling, partial curve]"
O=C(Nc1ccc(NC(=O)c2ccco2)cc1)c1cnccn1,AC50,[1],"20 µM [falling, partial curve]"
Cc1ccc(NC(=O)CN(C)S(=O)(=O)c2cccc3nsnc23)cc1Cl,AC50,[1],"25.1 µM [falling, partial curve]"
Cc1ccc(-c2noc(CNC(=O)c3ccc(C)c(Cl)c3)n2)cc1,AC50,[1],"25.1 µM [falling, partial curve]"
COc1ccc(N2CCN(C(=O)CSc3ncccc3-c3nc4ccccc4[nH]3)CC2)cc1,AC50,[1],"0.631 µM [falling, full curve]"
O=C(NCc1ccccc1Cl)c1nnc(Cc2cccc(F)c2)o1,AC50,[1],"5.01 µM [falling, partial curve]"
CCN(CC)S(=O)(=O)c1cc(C(=O)Nc2ccc(Cl)cn2)ccc1C,AC50,[1],"10 µM [falling, partial curve]"
Cc1ccc2c(CC(=O)N(Cc3ccc(N(C)C)cc3)Cc3ccco3)coc2c1C,AC50,[1],"15.8 µM [falling, partial curve]"
Cc1ccc2oc(-c3ccc(C)c(NC(=O)/C=C/c4ccco4)c3)nc2c1,AC50,[1],"25.1 µM [falling, partial curve]"
N#Cc1ccccc1CSc1nnc(-c2ccc(Br)cc2)o1,AC50,[1],"2 µM [rising, partial curve]"
O=C1CSC2(C(=O)N(Cc3cccc(C(F)(F)F)c3)c3ccccc32)N1c1ccc(F)c(F)c1 (stereo not given),AC50,[1],"31.6 µM [falling, single point]"
COc1cccc(-c2cc(C(F)(F)F)n3ncc(C(=O)OC(C)C)c3n2)c1,AC50,[1],"1.58 µM [rising, full curve, poor fit]"
O=C(c1ccco1)N1CCN(c2ncnc3c2oc2ccccc23)CC1,AC50,[1],"25.1 µM [falling, single point]"
COc1ccc(C(=O)c2cn(CC(=O)Nc3cc(OC)cc(OC)c3)c3ccc(OC)cc3c2=O)cc1,AC50,[1],"25.1 µM [falling, partial curve]"
COC(=O)c1ccccc1NC(=O)Cn1c(=O)n(CCC(=O)NCc2ccc3c(c2)OCO3)c(=O)c2ccccc21,AC50,[1],"39.8 µM [rising, single point] [measured here: IkB-luc green channel]"
CC1=C(C(=O)OC2CCCC2)C(c2c(F)cccc2Cl)CC(=O)N1 (stereo not given),AC50,[1],"39.8 µM [falling, single point]"

# 2 entries drawn at random from the list so far:
compound,measurement,setting,value
Cc1ccsc1C(=O)Nc1nnc(-c2ccco2)o1,AC50,measured here: control luc red channel,"5.01 µM [falling, full curve]"
O=C(NCc1ccccc1Cl)c1nnc(Cc2cccc(F)c2)o1,AC50,[1],"5.01 µM [falling, partial curve]"
